Source: the supplement of paper PMC5949888
Most values lie at the floor of the assay. Slopes are relative: functional sequences can read slightly below zero.

What follows are substances tested on Saccharomyces cerevisiae PS128 hsf1 delta, HSF1(1-493) fusion (assay: growth estimate (transactivation domain function in HSF1 fusion, heat-shock survival) (a.u. (slope of normalised read count over time)); higher = stronger growth at 37°C, i.e. more transactivation activity). Details: library: random library.

Substance	growth estimate
RRRSPIPFVFYQYGRLLQPQ	< -0.25
RRRVRALTGPYSNRVTWRPK	< -0.25
RRSCIMRSISLWESSFRNWR	< -0.25
RRSLGRRESNAGI	< -0.25
RRSQRRTVER	< -0.25
RRSRTGCGYSGTRGLAPSSE	< -0.25
RRSSTMEA	-0.243
RRSVGAFAERRSMVGSYQWM	< -0.25
RRSWLLLGSMSSYILPQALC	< -0.25
RRTAL	< -0.25
RRTCGLYTITHHKILALSRR	< -0.25
RRTDRV	< -0.25
RRTLMSVKHCHNLSLMSRRP	< -0.25
RRTPRVQSWSLDSVSSYAVE	< -0.25
RRTPS	< -0.25
RRTRATSLYNRGLMVHQ	< -0.25
RRTRVGLLGRGDPEFLGNGP	< -0.25
RRVARLAPKISMCIVLSQYS	-0.232
RRVCTVWHQCWARLAWFPIT	< -0.25
RRVERIEGGRTLDVQHRPVL	< -0.25
RRVRLLAPSGMSRPHIHDIC	< -0.25
RRVSLGDSSIIPGAQQPSSS	< -0.25
RRVSVRHQSTVLASNEPLRS	< -0.25
RRVTLRTKSHENGILLEYS	< -0.25
RRWGGMHGTDWMSTAAYKVR	< -0.25

Substance	growth estimate
RSAAGCSALEGGKPTTVKYR	< -0.25
RSALSHRTLGQYMEPSDDS	< -0.25
RSALVPLPSMHGRRRWCIAP	< -0.25
RSAREC	< -0.25
RSARSIS	< -0.25
RSAYGRSHRCTASNCSSCLY	< -0.25
RSCCVVLRLYHDPWSVNSPG	< -0.25
RSCGTGPVCD	< -0.25
RSCIFLRRFVTKI	< -0.25
RSCREKLMFGDPHPSANSMN	< -0.25
RSDASFCVWRVLTG	< -0.25
RSDESYIGLRVSFTPYDGYV	< -0.25
RSDLSERQRTLRIT	< -0.25
RSDPWHF	< -0.25
RSDQSIINLTGAYGSDGLLV	< -0.25
RSENPRTAYYKLAWCVVYAP	< -0.25
RSENYLAGGTGIAAVC	< -0.25
RSEQIHVIKKPTQCGVISPQ	< -0.25
RSETFQHRCCL	< -0.25
RSEWRLVISDST	< -0.25
RSFLDHRVHVGK	< -0.25
RSFSSRRNSMSETRCHLPLT	< -0.25
RSFYSI	< -0.25
RSGFRYCRRRVRL	< -0.25
RSGGPRNQRTRVERYKVECT	< -0.25

Substance	growth estimate
RSGHNSGCSFVLGQVD	< -0.25
RSGLWARPWIYLQDMELSPR	< -0.25
RSGPPIKQGFDARSWPQFNP	< -0.25
RSGPRAHD	< -0.25
RSGPSLCLDSDTLLIKRAAM	< -0.25
RSGVKRGKTTAHSIA	< -0.25
RSGY	< -0.25
RSHHAWC	< -0.25
RSHLKSTYS	< -0.25
RSHRFLRLSPSRCVSKPRTP	< -0.25
RSHRRVSPLMQY	< -0.25
RSIAGHIWTRRCSMLHSSPG	< -0.25
RSICARPPGSVLLHSRFKIS	< -0.25
RSIFATKTNGSVEVRVEGYQ	< -0.25
RSIKGLPLELQDGAPPCSFQ	-0.239
RSILGKGTIALPMPKRWYRS	< -0.25
RSIVRMLGKTMP	< -0.25
RSK	< -0.25
RSKRSQSAHRPQCLLRQHRQ	< -0.25
RSKWAGELLRGAKFKDMLNN	< -0.25
RSLGRRRLTNPR	< -0.25
RSLHGHEARSHKRGRTHEAI	< -0.25
RSLKHALG	< -0.25
RSLKSVTRVHKTS	< -0.25
RSLKVKDMVRQGTIAR	< -0.25

Substance	growth estimate
RSLSCSARRSPHVPQGDHGH	< -0.25
RSLVGCPSKHAVRFVVPPAS	< -0.25
RSLVVYRRRTGIGLTLIKSI	< -0.25
RSLYGVPRPYVPRAGSREAL	< -0.25
RSMVK	< -0.25
RSNCNSGTRWQR	< -0.25
RSNGP	< -0.25
RSNNAMNIVGTVPSSMRAAD	-0.241
RSNQARGGMVIPGVHR	< -0.25
RSNVSLDGLIWTEICFSEAG	< -0.25
RSPFE	< -0.25
RSPIFAAVGQRGNTGTFALH	< -0.25
RSPPAASRSAGWRRQGLGSV	< -0.25
RSPSRWI	< -0.25
RSPYAVSEITGRFAIRM	< -0.25
RSPYTEGGSTSDLRARANLD	< -0.25
RSQGFECQIVATTLGGNALS	< -0.25
RSQHLGHSKWQREARSFECP	< -0.25
RSQKRTVCRTRCRRQRPEVA	< -0.25
RSQTN	< -0.25
RSQTQAHKL	< -0.25
RSRA	< -0.25
RSREWPALRNALSRL	< -0.25
RSRFFEPS	< -0.25
RSRGINYGCSIGSNQVKDET	< -0.25

Substance	growth estimate
RSRPIGHSGNSQGVVSFRIK	-0.229
RSRQAGPHSLHRPSIAFHHR	< -0.25
RSRQLLNTLAGLG	< -0.25
RSRRLLIGVRVI	< -0.25
RSRSISFTSKSALNAPNFKN	< -0.25
RSRSVFGKHICFGAAHSGSS	< -0.25
RSRTSKEDSRSVR	< -0.25
RSRWSGGGLRTYRKS	< -0.25
RSSCSSERGVQSLGYHWFAF	< -0.25
RSSKILNSRRLVGHRVTRKM	< -0.25
RSSNMNVLVYDSSTRSRQPL	< -0.25
RSSPWPGIARSHGPIKRS	< -0.25
RSSRGKQSLVEGGLRNSGSR	< -0.25
RSSTANYRSRAQIGASLASC	< -0.25
RSSVCSLRKGSGF	< -0.25
RSSVRCSLILTRKRYASKQG	< -0.25
RST	< -0.25
RSTDP	< -0.25
RSTSACTRMEPAIVHTYYCA	< -0.25
RSTTIHVFLPVDLWLGMAGW	< -0.25
RSTVVPH	< -0.25
RSVPSYFGSRV	< -0.25
RSVRFGNSDCS	-0.246
RSVTYFFE	< -0.25
RSVVG	< -0.25

Substance	growth estimate
RSWGNA	< -0.25
RSWSQSATIWRRDGTDTTRT	-0.245
RSYG	< -0.25
RSYIMRFARRGKGTQRNSAS	< -0.25
RSYPRVGNGHARWLSKGGPN	< -0.25
RSYSGSWLCTWSMHLGSQPP	< -0.25
RSYTAVRA	< -0.25
RTAFR	< -0.25
RTAFSARRGQGHRCAVSMIE	< -0.25
RTAKVEVTRTR	< -0.25
RTALGVLRRFGRALNLWTRT	< -0.25
RTAPGCALR	< -0.25
RTARFH	< -0.25
RTCAFTALKRWHHCNLG	< -0.25
RTCGVLPPCDGGIVGHESLQ	< -0.25
RTCRDYPSWVRDNCLVISHR	< -0.25
RTCSGTIHRTAASKFA	< -0.25
RTCYSLRGL	< -0.25
RTDILSVWLVGRETRRLHGS	< -0.25
RTEGDFCTEVGRRHGVGGPC	< -0.25
RTELVSSQQFITLGHLAFLH	< -0.25
RTETITGF	< -0.25
RTFANICSWTSDLLFHEPPS	< -0.25
RTFCIGGID	< -0.25
RTFLPVFS	< -0.25

Substance	growth estimate
RTGIQRVRLLGFVMITVVLI	< -0.25
RTGLGNHQKFQFVERN	-0.246
RTGTSEYELHGYTVC	< -0.25
RTGVPG	< -0.25
RTHGDGNVCTKTHATTVQEL	< -0.25
RTHGWISDGNRRIQVVAPIT	< -0.25
RTKFI	< -0.25
RTLDTHNQ	< -0.25
RTLMLSVYPMRLKLVIPLWE	< -0.25
RTLSRIERGRATMLETGLVW	< -0.25
RTLYGAHGVSWRNLTGQNIR	< -0.25
RTLYIGAMIALGETGI	< -0.25
RTMTSLRFAKRMTLPDIVG	< -0.25
RTP	< -0.25
RTPAGPLFDLGFPNKLRIKE	< -0.25
RTPNPFGYTGFKCMSTLRCS	< -0.25
RTPNVIMGLVSPVAYPSSLD	< -0.25
RTRCSLEIDSMYTFFCKAHN	< -0.25
RTRDGVS	< -0.25
RTRDLVQRST	< -0.25
RTRGVRGLAFSMKGTTRQLG	< -0.25
RTRIQYRPGMGAFDVNSLG	< -0.25
RTRLDRKLSPGS	< -0.25
RTRLREL	< -0.25
RTRLTNPGFLLRPFPSFRDG	< -0.25

Substance	growth estimate
RTRSTPGDRRIGNCDHTEPA	< -0.25
RTRTSRGRAWDLWPQCALGM	< -0.25
RTSAGPAPPALYP	< -0.25
RTSDHSADVAICLCLGPSTW	< -0.25
RTSDR	< -0.25
RTSPDRDLSCRELCRELRYR	< -0.25
RTSPISTCERHCGLYVRL	< -0.25
RTSSRGGSQYSSRAS	< -0.25
RTT	< -0.25
RTTCHLPS	< -0.25
RTTKFRIARVYYVESGQ	< -0.25
RTTL	< -0.25
RTTRRQDHGMRHRYREVRGP	< -0.25
RTTRRRLGRQ	< -0.25
RTTY	< -0.25
RTVEIILGREPVKAGTGPPF	< -0.25
RTVGFPSLAGAGLCHVSPQE	< -0.25
RTVLFWSLDFSVPLLFNLHG	< -0.25
RTVSKTRSQNPNGNRQSPSK	< -0.25
RTVSRNCQRVA	< -0.25
RVAS	-0.172
